Laboratory results from article PMC4507769.
Results are given in words; binding and its absence hold for the method and conditions named. Some entries that bind do so weakly or less than the wild type.

By UniProt entry, the sequences of proteins in these tests, tags left out.
UniProt O64645: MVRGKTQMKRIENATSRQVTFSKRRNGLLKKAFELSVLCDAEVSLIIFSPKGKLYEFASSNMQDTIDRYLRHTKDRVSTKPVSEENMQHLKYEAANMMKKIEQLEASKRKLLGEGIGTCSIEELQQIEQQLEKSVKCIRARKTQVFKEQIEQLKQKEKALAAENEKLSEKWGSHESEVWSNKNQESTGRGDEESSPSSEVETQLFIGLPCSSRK

Target: Arabidopsis SUPPRESSOR OF OVEREXPRESSION OF CONSTANS1 (SOC1) (Arabidopsis thaliana) (UniProt O64645)
Experiment: two-hybrid; GAL4 system; baits in pDEST32 (strain PJ69-4α), preys in pDEST22 (strain PJ69-4a), mated; growth scored on media lacking Trp, Leu and His with 0, 1, 3 and 5 mM 3-amino-1,2,4-triazole, 4 d at 20 °C; reciprocal tests in duplicate for all combinations

- binding: binds
Substance: Arabidopsis SUPPRESSOR OF OVEREXPRESSION OF CONSTANS1 (SOC1) (from UniProt O64645 1-214)
